# Assay results from the supplement of paper PMC4635364.
# Where a name gives a salt, the structure may show the parent alone. The list shows a part of the results. Repeats in this data set agree poorly, so a single value says little.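 ReNCell VM, a human fetal ventral-midbrain neural progenitor line, was differentiated without mitogens. Blinded raters scored images stained for doublecortin (early neurons) or tyrosine hydroxylase (dopaminergic neurons) against untreated wells (0 = no change). Scores were averaged across repeats and both raters, and compounds averaging 2 or more were selected as hits for retesting.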
# Assays:
# ReNCell VM [1] = experiment: neuronal differentiation score (DCX+ cell fraction vs untreated, manual image score) (score (-3 to 3)); higher = more neuronal differentiation; conditions: 2 uM, 2 weeks
# ReNCell VM [2] = experiment: dopaminergic neuron differentiation score (TH+ cell fraction vs untreated, manual image score) (score (0 to 3)); higher = more TH+ dopaminergic neuron differentiation; conditions: 2 uM, 4 weeks, BDNF 10 ng/ml + GDNF 10 ng/ml
smiles,measurement,setting,value
O=C(O)/C=C/C(O)c1ccc(Cl)cc1 (stereo not given),neuronal differentiation score,ReNCell VM [1]; library: LOPAC,inactive: 0
same,dopaminergic neuron differentiation score,ReNCell VM [2]; library: LOPAC,inactive: 0
CC(=O)N[C@@H](CS)C(=O)O,neuronal differentiation score,ReNCell VM [1]; library: Spectrum,inactive: 0
same,dopaminergic neuron differentiation score,ReNCell VM [2]; library: Spectrum,inactive: 0
CC(=O)SCC(Cc1ccccc1)C(=O)NCC(=O)OCc1ccccc1 (stereo not given),neuronal differentiation score,ReNCell VM [1]; library: Spectrum,inactive: 0
same,dopaminergic neuron differentiation score,ReNCell VM [2]; library: Spectrum,inactive: 0
NC(Cn1ccc(=O)c(O)c1)C(=O)O (stereo not given),neuronal differentiation score,ReNCell VM [1]; library: Spectrum,inactive: 0
same,dopaminergic neuron differentiation score,ReNCell VM [2]; library: Spectrum,inactive: 0
CCc1c(C)[nH]c2c1C(=O)C(CN1CCOCC1)CC2 (stereo not given),neuronal differentiation score,ReNCell VM [1]; library: Spectrum,inactive: 0
same,dopaminergic neuron differentiation score,ReNCell VM [2]; library: Spectrum,inactive: 0
Cc1c(Nc2ncccc2C(=O)O)cccc1C(F)(F)F,neuronal differentiation score,ReNCell VM [1]; library: Spectrum,active: 3
same,dopaminergic neuron differentiation score,ReNCell VM [2]; library: Spectrum,inactive: 0
C[n+]1ccccc1C=NO,neuronal differentiation score,ReNCell VM [1]; library: Spectrum,inactive: 1
same,dopaminergic neuron differentiation score,ReNCell VM [2]; library: Spectrum,inactive: 0
C=C[C@H]1CN2CC[C@H]1C[C@H]2[C@H](O)c1ccnc2ccc(OC)cc12 [Quinine dihydrochloride],neuronal differentiation score,ReNCell VM [1]; library: Phytochemical,inactive: 0
same,dopaminergic neuron differentiation score,ReNCell VM [2]; library: Phytochemical,inactive: 0
Nc1nc2[nH]c(=O)cnc2c(=O)[nH]1 [Isoxanthopterin],neuronal differentiation score,ReNCell VM [1]; library: LOPAC,inactive: 0
same,dopaminergic neuron differentiation score,ReNCell VM [2]; library: LOPAC,inactive: 0
COC(=O)c1cc(O)c(=O)c2c(O)c(O)ccc2c1,neuronal differentiation score,ReNCell VM [1]; library: Spectrum,inactive: 0
same,dopaminergic neuron differentiation score,ReNCell VM [2]; library: Spectrum,inactive: 0
CNCCc1ccccn1 [Betahistine mesylate],neuronal differentiation score,ReNCell VM [1]; library: Prestwick,inactive: 0
same,dopaminergic neuron differentiation score,ReNCell VM [2]; library: Prestwick,inactive: 0
CCN1/C(=C/C(C)=O)Sc2ccc(OC)cc21,neuronal differentiation score,ReNCell VM [1]; library: LOPAC,inactive: 0
same,dopaminergic neuron differentiation score,ReNCell VM [2]; library: LOPAC,inactive: 0
Cn1c(=O)c2nc[nH]c2n(C)c1=O [Theophylline],neuronal differentiation score,ReNCell VM [1]; library: LOPAC,inactive: 0
same,dopaminergic neuron differentiation score,ReNCell VM [2]; library: LOPAC,inactive: 0
O=c1cc(N2CCOCC2)oc2c(-c3ccccc3)cccc12,neuronal differentiation score,ReNCell VM [1]; library: Tocriscreen,inactive: 0
same,dopaminergic neuron differentiation score,ReNCell VM [2]; library: Tocriscreen,inactive: 0
C[N+](C)(C)CC(O)CC(=O)[O-] (stereo not given),neuronal differentiation score,ReNCell VM [1]; library: Spectrum,inactive: 0
same,dopaminergic neuron differentiation score,ReNCell VM [2]; library: Spectrum,inactive: 0
Oc1nc(-c2ccc(C(F)(F)F)cc2)nc2c1CSCC2,neuronal differentiation score,ReNCell VM [1]; library: Tocriscreen,inactive: 0
same,dopaminergic neuron differentiation score,ReNCell VM [2]; library: Tocriscreen,inactive: 0
CC1=C(/C=C/C(C)=C/C=C/C(C)=C/C=C/C=C(C)/C=C/C=C(C)/C=C/C2=C(C)C(=O)CCC2(C)C)C(C)(C)CCC1=O [CANTHAXANTHIN (euglenanone)],neuronal differentiation score,ReNCell VM [1]; library: Spectrum,inactive: 0
same,dopaminergic neuron differentiation score,ReNCell VM [2]; library: Spectrum,inactive: 0
CCCCNc1ccc(C(=O)OCCOCCOCCOCCOCCOCCOCCOCCOCCOC)cc1 [Benzonatate],neuronal differentiation score,ReNCell VM [1]; library: Prestwick,inactive: 0
same,dopaminergic neuron differentiation score,ReNCell VM [2]; library: Prestwick,inactive: 0
CN(C)CC/C=C1/c2ccccc2COc2ccc(CC(=O)O)cc21 [Olopatadine hydrochloride],neuronal differentiation score,ReNCell VM [1]; library: Prestwick,inactive: 0
same,dopaminergic neuron differentiation score,ReNCell VM [2]; library: Prestwick,inactive: 0
OC(c1cc(C(F)(F)F)nc2c(C(F)(F)F)cccc12)C1CCCCN1 (stereo not given) [Mefloquine hydrochloride],neuronal differentiation score,ReNCell VM [1]; library: Prestwick,inactive: 0
same,dopaminergic neuron differentiation score,ReNCell VM [2]; library: Prestwick,inactive: 0
NS(=O)(=O)c1cc2c(cc1Cl)N=C(CSCc1ccccc1)NS2(=O)=O [Benzthiazide],neuronal differentiation score,ReNCell VM [1]; library: Prestwick,inactive: 0
same,dopaminergic neuron differentiation score,ReNCell VM [2]; library: Prestwick,inactive: 0
COc1cc(/C=C/C(=O)N2CCC=CC2=O)cc(OC)c1OC [Piperlongumine],neuronal differentiation score,ReNCell VM [1]; library: Phytochemical,inactive: 0
same,dopaminergic neuron differentiation score,ReNCell VM [2]; library: Phytochemical,inactive: 0
CC1=C(/C=C/C(C)=C/C=C/C(C)=C/CO)C(C)(C)CCC1,neuronal differentiation score,ReNCell VM [1]; library: Spectrum,inactive: 0
same,dopaminergic neuron differentiation score,ReNCell VM [2]; library: Spectrum,inactive: 0
COC(=O)[C@H]1[C@H]2C[C@@H]3c4[nH]c5cc(OC)ccc5c4CCN3C[C@H]2C[C@@H](OC(=O)c2cc(OC)c(OC)c(OC)c2)[C@@H]1OC,neuronal differentiation score,ReNCell VM [1]; library: Spectrum,inactive: 0
same,dopaminergic neuron differentiation score,ReNCell VM [2]; library: Spectrum,inactive: 0
CC(C)(C)[N+]([O-])=Cc1ccc(S(=O)(=O)O)cc1S(=O)(=O)O,neuronal differentiation score,ReNCell VM [1]; library: Tocriscreen,inactive: 0
same,dopaminergic neuron differentiation score,ReNCell VM [2]; library: Tocriscreen,inactive: 0
O=c1c(O)c(-c2ccccc2)oc2cc(O)ccc12,neuronal differentiation score,ReNCell VM [1]; library: Spectrum,inactive: 0
same,dopaminergic neuron differentiation score,ReNCell VM [2]; library: Spectrum,inactive: 0
CS(=O)(=O)Nc1ccc([N+](=O)[O-])cc1Oc1ccccc1,neuronal differentiation score,ReNCell VM [1]; library: Spectrum,inactive: 0
same,dopaminergic neuron differentiation score,ReNCell VM [2]; library: Spectrum,inactive: 0
NC[C@@H](O)c1ccc(O)c(O)c1 [L(-)-Norepinephrine bitartrate],neuronal differentiation score,ReNCell VM [1]; library: LOPAC,inactive: 0
same,dopaminergic neuron differentiation score,ReNCell VM [2]; library: LOPAC,inactive: 0
COc1cc2c(cc1OC)C(=O)C(CC1CCN(Cc3ccccc3)CC1)C2 (stereo not given),neuronal differentiation score,ReNCell VM [1]; library: Spectrum,active: 3
same,dopaminergic neuron differentiation score,ReNCell VM [2]; library: Spectrum,inactive: 0
CCS(=O)(=O)N(C)[C@H]1c2cc(C#N)ccc2OC(C)(C)[C@@H]1O (racemic) [Chromanol 293B],neuronal differentiation score,ReNCell VM [1]; library: Tocriscreen,inactive: 0
same,dopaminergic neuron differentiation score,ReNCell VM [2]; library: Tocriscreen,inactive: 0
CC1(C)[C@@H](OC(=O)CCC(=O)O)CC[C@]2(C)[C@H]3C(=O)C=C4[C@@H]5C[C@@](C)(C(=O)O)CC[C@]5(C)CC[C@@]4(C)[C@]3(C)CC[C@@H]12 [Carbenoxolone disodium salt],neuronal differentiation score,ReNCell VM [1]; library: Prestwick,inactive: 0
same,dopaminergic neuron differentiation score,ReNCell VM [2]; library: Prestwick,inactive: 0
"Cc1cn(C2C=CC(CO)O2)c(=O)[nH]c1=O (stereo not given) [2',3'-didehydro-3'-deoxythymidine]",neuronal differentiation score,ReNCell VM [1]; library: LOPAC,inactive: 0
same,dopaminergic neuron differentiation score,ReNCell VM [2]; library: LOPAC,inactive: 0
NCCNS(=O)(=O)c1cccc2c(Cl)cccc12 [A3 hydrochloride],neuronal differentiation score,ReNCell VM [1]; library: LOPAC,inactive: 0
same,dopaminergic neuron differentiation score,ReNCell VM [2]; library: LOPAC,inactive: 0
Oc1ccc(Cl)c2c1CCC2,neuronal differentiation score,ReNCell VM [1]; library: Spectrum,inactive: 0
same,dopaminergic neuron differentiation score,ReNCell VM [2]; library: Spectrum,inactive: 0
COC(=O)C1=C(C)NC(C)=C(C(=O)OC(C)C)C1c1cccc2nonc12 (stereo not given),neuronal differentiation score,ReNCell VM [1]; library: Spectrum,inactive: 0
same,dopaminergic neuron differentiation score,ReNCell VM [2]; library: Spectrum,inactive: 0

# 22 entries from above, bar-delimited:
smiles | measurement | setting | value
Oc1nc(-c2ccc(C(F)(F)F)cc2)nc2c1CSCC2 | dopaminergic neuron differentiation score | ReNCell VM [2]; library: Tocriscreen | inactive: 0
CC1=C(/C=C/C(C)=C/C=C/C(C)=C/C=C/C=C(C)/C=C/C=C(C)/C=C/C2=C(C)C(=O)CCC2(C)C)C(C)(C)CCC1=O [CANTHAXANTHIN (euglenanone)] | neuronal differentiation score | ReNCell VM [1]; library: Spectrum | inactive: 0
same | dopaminergic neuron differentiation score | ReNCell VM [2]; library: Spectrum | inactive: 0
CCCCNc1ccc(C(=O)OCCOCCOCCOCCOCCOCCOCCOCCOCCOC)cc1 [Benzonatate] | neuronal differentiation score | ReNCell VM [1]; library: Prestwick | inactive: 0
same | dopaminergic neuron differentiation score | ReNCell VM [2]; library: Prestwick | inactive: 0
CN(C)CC/C=C1/c2ccccc2COc2ccc(CC(=O)O)cc21 [Olopatadine hydrochloride] | neuronal differentiation score | ReNCell VM [1]; library: Prestwick | inactive: 0
same | dopaminergic neuron differentiation score | ReNCell VM [2]; library: Prestwick | inactive: 0
OC(c1cc(C(F)(F)F)nc2c(C(F)(F)F)cccc12)C1CCCCN1 (stereo not given) [Mefloquine hydrochloride] | neuronal differentiation score | ReNCell VM [1]; library: Prestwick | inactive: 0
same | dopaminergic neuron differentiation score | ReNCell VM [2]; library: Prestwick | inactive: 0
NS(=O)(=O)c1cc2c(cc1Cl)N=C(CSCc1ccccc1)NS2(=O)=O [Benzthiazide] | neuronal differentiation score | ReNCell VM [1]; library: Prestwick | inactive: 0
same | dopaminergic neuron differentiation score | ReNCell VM [2]; library: Prestwick | inactive: 0
COc1cc(/C=C/C(=O)N2CCC=CC2=O)cc(OC)c1OC [Piperlongumine] | neuronal differentiation score | ReNCell VM [1]; library: Phytochemical | inactive: 0
same | dopaminergic neuron differentiation score | ReNCell VM [2]; library: Phytochemical | inactive: 0
CC1=C(/C=C/C(C)=C/C=C/C(C)=C/CO)C(C)(C)CCC1 | neuronal differentiation score | ReNCell VM [1]; library: Spectrum | inactive: 0
same | dopaminergic neuron differentiation score | ReNCell VM [2]; library: Spectrum | inactive: 0
COC(=O)[C@H]1[C@H]2C[C@@H]3c4[nH]c5cc(OC)ccc5c4CCN3C[C@H]2C[C@@H](OC(=O)c2cc(OC)c(OC)c(OC)c2)[C@@H]1OC | neuronal differentiation score | ReNCell VM [1]; library: Spectrum | inactive: 0
same | dopaminergic neuron differentiation score | ReNCell VM [2]; library: Spectrum | inactive: 0
CC(C)(C)[N+]([O-])=Cc1ccc(S(=O)(=O)O)cc1S(=O)(=O)O | neuronal differentiation score | ReNCell VM [1]; library: Tocriscreen | inactive: 0
same | dopaminergic neuron differentiation score | ReNCell VM [2]; library: Tocriscreen | inactive: 0
O=c1c(O)c(-c2ccccc2)oc2cc(O)ccc12 | neuronal differentiation score | ReNCell VM [1]; library: Spectrum | inactive: 0
same | dopaminergic neuron differentiation score | ReNCell VM [2]; library: Spectrum | inactive: 0
CS(=O)(=O)Nc1ccc([N+](=O)[O-])cc1Oc1ccccc1 | neuronal differentiation score | ReNCell VM [1]; library: Spectrum | inactive: 0
